Experimental findings from ChEMBL document CHEMBL4257587 (J Med Chem, 2018) are described below.

Data set [1] deals with HepG2. The data set can be described thus: Cytotoxicity against human HepG2 cells assessed as effect on membrane permeability after 48 hrs by TOTO-3 iodide-staining based cell health assay. The following applies: HepG2, 48 h. It counts as ADME.
The nature of data set [2]: physchem. The note with it: buffer, pH 7.4.

pIC50: −log10 of the molar value. Values after ≈ are worked out from the molar mass of the structure shown.

One may read the pIC50 as the negative decadic logarithm of the IC50, by convention in mol/L. For orientation: kinetic solubility means solubility judged after dilution from a stock solution rather than from solid. In the case of `FC(F)(F)Oc1ccc(Oc2ccc(N3CCC4(CC3)OCCc3sccc34)cc2)cc1`, in data set [1], the pIC50 was 4.90. In data set [2], this molecule showed a kinetic solubility at 1 h of 6 µM (≈ 2.77 µg/mL).

Regarding `CC(C)(C)c1ccc(CN2CCC3(CCCCO3)CC2)cc1`, in data set [2], the solubility (kinetic) at 1 h was ≥ 596 µM.
